# Experimental data reported in the supplement of paper PMC10077471.
# In all, about 1,900 compounds were measured (“excess over highest single agent (ExcessHSA) synergy score, 6x6 matrix”: median about -83, lowest 2% from about -370 on). The list shows a part of the results.
# Test system: NCI-H446
# Test: excess over highest single agent (ExcessHSA) synergy score, 6x6 matrix; higher = less synergy (more negative = stronger synergy)
# Details: 72 h; CellTiter-Glo viability
row,SMILES,excess over highest single agent
1,Cc1ccc2c(c1)c1c(n2CCc2ccc(C)nc2)CCN(C)C1 + Cc1sc2c(c1C)C(c1ccc(Cl)cc1)=N[C@@H](CC(=O)OC(C)(C)C)c1nnc(C)n1-2 [NCGC00250412-19],-121
2,CC[C@H](c1ccc(O)cc1)[C@@H](CC)c1ccc(O)cc1 + Cc1sc2c(c1C)C(c1ccc(Cl)cc1)=N[C@@H](CC(=O)OC(C)(C)C)c1nnc(C)n1-2 [NCGC00250412-19],-134
3,N#CC1(c2ccc(NC(=O)c3cccnc3NCc3ccncc3)cc2)CCCC1 + Cc1sc2c(c1C)C(c1ccc(Cl)cc1)=N[C@@H](CC(=O)OC(C)(C)C)c1nnc(C)n1-2 [NCGC00250412-19],-74.9
4,C[C@H](Cc1ccc(O)c(O)c1)[C@@H](C)Cc1ccc(O)c(O)c1 + Cc1sc2c(c1C)C(c1ccc(Cl)cc1)=N[C@@H](CC(=O)OC(C)(C)C)c1nnc(C)n1-2 [NCGC00250412-19],-373
5,O=C(/C=C/c1cccnc1)NCCCCC1CCN(C(=O)c2ccccc2)CC1 + Cc1sc2c(c1C)C(c1ccc(Cl)cc1)=N[C@@H](CC(=O)OC(C)(C)C)c1nnc(C)n1-2 [NCGC00250412-19],-55.6
6,NCCc1ccc(O)c(O)c1 + Cc1sc2c(c1C)C(c1ccc(Cl)cc1)=N[C@@H](CC(=O)OC(C)(C)C)c1nnc(C)n1-2 [NCGC00250412-19],1.43
7,CC1(C)Cc2c(sc(NC(=S)NC(=O)c3ccccc3)c2C(=O)O)CO1 + Cc1sc2c(c1C)C(c1ccc(Cl)cc1)=N[C@@H](CC(=O)OC(C)(C)C)c1nnc(C)n1-2 [NCGC00250412-19],46.2
8,COc1c(Cl)cc2c([nH]c3cnccc32)c1NC(=O)c1cccnc1C + Cc1sc2c(c1C)C(c1ccc(Cl)cc1)=N[C@@H](CC(=O)OC(C)(C)C)c1nnc(C)n1-2 [NCGC00250412-19],-170
9,C=C1/C(=C\C=C2/CCC[C@]3(C)[C@@H]([C@H](C)/C=C/C=C/C(O)(CC)CC)CC[C@@H]23)C[C@@H](O)C[C@@H]1O + Cc1sc2c(c1C)C(c1ccc(Cl)cc1)=N[C@@H](CC(=O)OC(C)(C)C)c1nnc(C)n1-2 [NCGC00250412-19],84.4
10,Cn1cnc2c(F)c(Nc3ccc(Br)cc3Cl)c(C(=O)NOCCO)cc21 + Cc1sc2c(c1C)C(c1ccc(Cl)cc1)=N[C@@H](CC(=O)OC(C)(C)C)c1nnc(C)n1-2 [NCGC00250412-19],-55
11,Nc1nc(N)c2nc(-c3cccc(O)c3)c(-c3cccc(O)c3)nc2n1 + Cc1sc2c(c1C)C(c1ccc(Cl)cc1)=N[C@@H](CC(=O)OC(C)(C)C)c1nnc(C)n1-2 [NCGC00250412-19],117
12,CC1(C)O[C@@H]2C[C@H]3[C@@H]4C[C@H](F)C5=CC(=O)C=C[C@]5(C)[C@H]4[C@@H](O)C[C@]3(C)[C@]2(C(=O)CO)O1 + Cc1sc2c(c1C)C(c1ccc(Cl)cc1)=N[C@@H](CC(=O)OC(C)(C)C)c1nnc(C)n1-2 [NCGC00250412-19],-48.9
13,COC1(C[S+]([O-])c2ccccc2)CCN(CCc2c[nH]c3ccc(F)cc23)CC1 (stereo not given) + Cc1sc2c(c1C)C(c1ccc(Cl)cc1)=N[C@@H](CC(=O)OC(C)(C)C)c1nnc(C)n1-2 [NCGC00250412-19],-115
14,CCCC[N+]1(C)[C@@H]2C[C@@H](OC(=O)[C@H](CO)c3ccccc3)C[C@H]1[C@@H]1O[C@@H]12 (stereo not given in full) + Cc1sc2c(c1C)C(c1ccc(Cl)cc1)=N[C@@H](CC(=O)OC(C)(C)C)c1nnc(C)n1-2 [NCGC00250412-19],-86.9
15,CN(Cc1cc(Br)cc(Br)c1N)C1CCCCC1 + Cc1sc2c(c1C)C(c1ccc(Cl)cc1)=N[C@@H](CC(=O)OC(C)(C)C)c1nnc(C)n1-2 [NCGC00250412-19],-97.4
16,Clc1ccc(-c2nc3sccn3c2C=NOCc2ccc(Cl)c(Cl)c2)cc1 + Cc1sc2c(c1C)C(c1ccc(Cl)cc1)=N[C@@H](CC(=O)OC(C)(C)C)c1nnc(C)n1-2 [NCGC00250412-19],-98.8
17,Cn1c(N2CCCCS2(=O)=O)nc(C(=O)NCc2ccc(F)cc2)c(O)c1=O + Cc1sc2c(c1C)C(c1ccc(Cl)cc1)=N[C@@H](CC(=O)OC(C)(C)C)c1nnc(C)n1-2 [NCGC00250412-19],5.46
18,C[C@H]1COC2(CCN(c3nc(=O)c4cc(C(F)(F)F)cc([N+](=O)[O-])c4s3)CC2)O1 + Cc1sc2c(c1C)C(c1ccc(Cl)cc1)=N[C@@H](CC(=O)OC(C)(C)C)c1nnc(C)n1-2 [NCGC00250412-19],70.9
19,Cn1cnc(=N)c2[nH]cnc21 + Cc1sc2c(c1C)C(c1ccc(Cl)cc1)=N[C@@H](CC(=O)OC(C)(C)C)c1nnc(C)n1-2 [NCGC00250412-19],-164
20,Cc1ccc(C(=O)N(CCCN)[C@@H](c2oc3cc(Cl)ccc3c(=O)c2Cc2ccccc2)C(C)C)cc1 + Cc1sc2c(c1C)C(c1ccc(Cl)cc1)=N[C@@H](CC(=O)OC(C)(C)C)c1nnc(C)n1-2 [NCGC00250412-19],-95.5
21,Cc1cccc(C)c1NC(=O)CN1CCCC1=O + Cc1sc2c(c1C)C(c1ccc(Cl)cc1)=N[C@@H](CC(=O)OC(C)(C)C)c1nnc(C)n1-2 [NCGC00250412-19],-220
22,C=CC[N+]1([C@H]2C[C@H]3[C@@H]4CC[C@H]5C[C@H](O)[C@@H](N6CCOCC6)C[C@]5(C)[C@H]4CC[C@]3(C)[C@H]2OC(C)=O)CCCC1 + Cc1sc2c(c1C)C(c1ccc(Cl)cc1)=N[C@@H](CC(=O)OC(C)(C)C)c1nnc(C)n1-2 [NCGC00250412-19],27.4
23,CC(C)(C)NC(=O)[C@H]1CC[C@H]2[C@@H]3CC[C@H]4NC(=O)C=C[C@]4(C)[C@H]3CC[C@]12C + Cc1sc2c(c1C)C(c1ccc(Cl)cc1)=N[C@@H](CC(=O)OC(C)(C)C)c1nnc(C)n1-2 [NCGC00250412-19],58.4
24,COc1ccc(CCC(=O)Nc2nc3ccc(Cl)cc3s2)cc1OC + Cc1sc2c(c1C)C(c1ccc(Cl)cc1)=N[C@@H](CC(=O)OC(C)(C)C)c1nnc(C)n1-2 [NCGC00250412-19],74.6
25,COc1ccc(-c2cc3nccn3c(Nc3ncccc3C(N)=O)n2)cc1OC + Cc1sc2c(c1C)C(c1ccc(Cl)cc1)=N[C@@H](CC(=O)OC(C)(C)C)c1nnc(C)n1-2 [NCGC00250412-19],-76.6

# Quoted from the listing for reference:
row,SMILES,excess over highest single agent
8,COc1c(Cl)cc2c([nH]c3cnccc32)c1NC(=O)c1cccnc1C + Cc1sc2c(c1C)C(c1ccc(Cl)cc1)=N[C@@H](CC(=O)OC(C)(C)C)c1nnc(C)n1-2 [NCGC00250412-19],-170
9,C=C1/C(=C\C=C2/CCC[C@]3(C)[C@@H]([C@H](C)/C=C/C=C/C(O)(CC)CC)CC[C@@H]23)C[C@@H](O)C[C@@H]1O + Cc1sc2c(c1C)C(c1ccc(Cl)cc1)=N[C@@H](CC(=O)OC(C)(C)C)c1nnc(C)n1-2 [NCGC00250412-19],84.4
